Results: paper PMC3400559

Biological target: T1, MFAP-1 (C. elegans microfibrillar-associated protein 1) (C. elegans) (UniProt Q93712)
T1 sequence: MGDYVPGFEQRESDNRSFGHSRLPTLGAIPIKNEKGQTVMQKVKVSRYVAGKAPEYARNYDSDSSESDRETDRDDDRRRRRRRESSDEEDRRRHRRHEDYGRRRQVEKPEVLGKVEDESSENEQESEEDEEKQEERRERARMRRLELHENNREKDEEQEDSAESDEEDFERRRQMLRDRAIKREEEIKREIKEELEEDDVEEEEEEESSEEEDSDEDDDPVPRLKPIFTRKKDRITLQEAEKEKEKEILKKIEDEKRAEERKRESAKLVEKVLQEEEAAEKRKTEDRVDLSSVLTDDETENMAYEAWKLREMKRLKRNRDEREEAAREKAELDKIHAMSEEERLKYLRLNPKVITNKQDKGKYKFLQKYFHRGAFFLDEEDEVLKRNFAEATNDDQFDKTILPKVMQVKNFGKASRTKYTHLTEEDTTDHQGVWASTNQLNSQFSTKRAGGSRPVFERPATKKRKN
Test: two-hybrid; screen: bait full-length MFAP-1 in pGBK T7, preys from a pACT2.2 C. elegans library, S. cerevisiae PJ69-4A, growth on SD-Leu-Trp-His with 5 mM 3-AT; clones isolated, retested, and no survival with the pGBK T7 empty vector

## T22H9.1 (protein involved in rRNA processing) (C. elegans)
  binding: binds

Results are given in words; binding and its absence hold for the method and conditions named. Binding calls can cover weak binding; strength is not graded here.
